# Measured values published in the supplement of paper PMC10077471.
# Whole data set: some 1,900 compounds, median “excess over highest single agent (ExcessHSA) synergy score, 6x6 matrix” near -83, cut for the lowest 2% near -370. The list shows a part of the results.
# Test system: NCI-H446
# Assay: excess over highest single agent (ExcessHSA) synergy score, 6x6 matrix; higher = less synergy (more negative = stronger synergy)
# Settings: 72 h; CellTiter-Glo viability
row,SMILES,excess over highest single agent
1,CCN(CCO)CCCC(C)Nc1ccnc2cc(Cl)ccc12 (stereo unspecified) + Cc1sc2c(c1C)C(c1ccc(Cl)cc1)=N[C@@H](CC(=O)OC(C)(C)C)c1nnc(C)n1-2 [NCGC00250412-19],-151
2,Cc1nc(Nc2ncc(C(=O)Nc3c(C)cccc3Cl)s2)cc(N2CCN(CCO)CC2)n1 + Cc1sc2c(c1C)C(c1ccc(Cl)cc1)=N[C@@H](CC(=O)OC(C)(C)C)c1nnc(C)n1-2 [NCGC00250412-19],-55.8
3,COc1cc(N2CCC(N3CCN(C)CC3)CC2)ccc1Nc1ncnc(Nc2ccccc2S(=O)(=O)C(C)C)n1 + Cc1sc2c(c1C)C(c1ccc(Cl)cc1)=N[C@@H](CC(=O)OC(C)(C)C)c1nnc(C)n1-2 [NCGC00250412-19],-165
4,Cc1cc(Nc2nc(N[C@@H](C)c3ccc(F)cc3)c(C#N)cc2F)n[nH]1 + Cc1sc2c(c1C)C(c1ccc(Cl)cc1)=N[C@@H](CC(=O)OC(C)(C)C)c1nnc(C)n1-2 [NCGC00250412-19],-209
5,CC(C)c1ccc2c(c1)c(SC(C)(C)C)c(CC(C)(C)C(=O)O)n2Cc1ccc(Cl)cc1 + Cc1sc2c(c1C)C(c1ccc(Cl)cc1)=N[C@@H](CC(=O)OC(C)(C)C)c1nnc(C)n1-2 [NCGC00250412-19],-156
6,CC(C)(Sc1ccc(CCN(CCCCC2CCCCC2)C(=O)NC2CCCCC2)cc1)C(=O)O + Cc1sc2c(c1C)C(c1ccc(Cl)cc1)=N[C@@H](CC(=O)OC(C)(C)C)c1nnc(C)n1-2 [NCGC00250412-19],-134
7,CC/C(=C(/CC)c1ccc(O)cc1)c1ccc(O)cc1 + Cc1sc2c(c1C)C(c1ccc(Cl)cc1)=N[C@@H](CC(=O)OC(C)(C)C)c1nnc(C)n1-2 [NCGC00250412-19],-47.1
8,Nc1nc(OCc2ccccc2)c2nc[nH]c2n1 + Cc1sc2c(c1C)C(c1ccc(Cl)cc1)=N[C@@H](CC(=O)OC(C)(C)C)c1nnc(C)n1-2 [NCGC00250412-19],-110
9,CC1=C(/C=C/C(C)=C/C=C/C(C)=C\C(=O)O)C(C)(C)CCC1 + Cc1sc2c(c1C)C(c1ccc(Cl)cc1)=N[C@@H](CC(=O)OC(C)(C)C)c1nnc(C)n1-2 [NCGC00250412-19],-323
10,NC(N)=Nc1nc(CSCC/C(N)=N/S(N)(=O)=O)cs1 + Cc1sc2c(c1C)C(c1ccc(Cl)cc1)=N[C@@H](CC(=O)OC(C)(C)C)c1nnc(C)n1-2 [NCGC00250412-19],-87.3
11,COc1ccc(-c2ccc3c(N4CCOCC4)nc(N4C[C@@H](C)O[C@@H](C)C4)nc3n2)cc1CO + Cc1sc2c(c1C)C(c1ccc(Cl)cc1)=N[C@@H](CC(=O)OC(C)(C)C)c1nnc(C)n1-2 [NCGC00250412-19],-237
12,OC(CN1CCN(c2cccc(Cl)c2)CC1)C(c1ccccc1)c1ccccc1 (stereo unspecified) + Cc1sc2c(c1C)C(c1ccc(Cl)cc1)=N[C@@H](CC(=O)OC(C)(C)C)c1nnc(C)n1-2 [NCGC00250412-19],-205
13,O=c1[nH]c2ccc(Cl)cc2c(N[C@@H]2CN3CCC2CC3)c1-c1nc2ccccc2[nH]1 + Cc1sc2c(c1C)C(c1ccc(Cl)cc1)=N[C@@H](CC(=O)OC(C)(C)C)c1nnc(C)n1-2 [NCGC00250412-19],-88.4
14,COc1cc(OC)c(/C=C/S(=O)(=O)Cc2ccc(OC)c(NCC(=O)O)c2)c(OC)c1 + Cc1sc2c(c1C)C(c1ccc(Cl)cc1)=N[C@@H](CC(=O)OC(C)(C)C)c1nnc(C)n1-2 [NCGC00250412-19],-242
15,CC(C)c1ccc(Cn2ccc3c4c(N)nc(NC5CC5)nc4ccc32)cc1 + Cc1sc2c(c1C)C(c1ccc(Cl)cc1)=N[C@@H](CC(=O)OC(C)(C)C)c1nnc(C)n1-2 [NCGC00250412-19],-256
16,CCCCCCCc1ccc(CCc2cccc(O)c2C(=O)O)cc1 + Cc1sc2c(c1C)C(c1ccc(Cl)cc1)=N[C@@H](CC(=O)OC(C)(C)C)c1nnc(C)n1-2 [NCGC00250412-19],-277
17,CC(C)(N)C(=O)N[C@H](COCc1ccccc1)C(=O)N1CCC2(CC1)CN(S(C)(=O)=O)c1ccccc12 + Cc1sc2c(c1C)C(c1ccc(Cl)cc1)=N[C@@H](CC(=O)OC(C)(C)C)c1nnc(C)n1-2 [NCGC00250412-19],-36
18,Cc1ccc([N+](=O)[O-])cc1S(=O)(=O)N(C)/N=C/c1cnc2ccc(Br)cn12 + Cc1sc2c(c1C)C(c1ccc(Cl)cc1)=N[C@@H](CC(=O)OC(C)(C)C)c1nnc(C)n1-2 [NCGC00250412-19],-135

# In a second layout: entries from further up
row	SMILES	excess over highest single agent
1	CCN(CCO)CCCC(C)Nc1ccnc2cc(Cl)ccc12 (stereo unspecified) + Cc1sc2c(c1C)C(c1ccc(Cl)cc1)=N[C@@H](CC(=O)OC(C)(C)C)c1nnc(C)n1-2 [NCGC00250412-19]	-151
2	Cc1nc(Nc2ncc(C(=O)Nc3c(C)cccc3Cl)s2)cc(N2CCN(CCO)CC2)n1 + Cc1sc2c(c1C)C(c1ccc(Cl)cc1)=N[C@@H](CC(=O)OC(C)(C)C)c1nnc(C)n1-2 [NCGC00250412-19]	-55.8
3	COc1cc(N2CCC(N3CCN(C)CC3)CC2)ccc1Nc1ncnc(Nc2ccccc2S(=O)(=O)C(C)C)n1 + Cc1sc2c(c1C)C(c1ccc(Cl)cc1)=N[C@@H](CC(=O)OC(C)(C)C)c1nnc(C)n1-2 [NCGC00250412-19]	-165
4	Cc1cc(Nc2nc(N[C@@H](C)c3ccc(F)cc3)c(C#N)cc2F)n[nH]1 + Cc1sc2c(c1C)C(c1ccc(Cl)cc1)=N[C@@H](CC(=O)OC(C)(C)C)c1nnc(C)n1-2 [NCGC00250412-19]	-209
5	CC(C)c1ccc2c(c1)c(SC(C)(C)C)c(CC(C)(C)C(=O)O)n2Cc1ccc(Cl)cc1 + Cc1sc2c(c1C)C(c1ccc(Cl)cc1)=N[C@@H](CC(=O)OC(C)(C)C)c1nnc(C)n1-2 [NCGC00250412-19]	-156
7	CC/C(=C(/CC)c1ccc(O)cc1)c1ccc(O)cc1 + Cc1sc2c(c1C)C(c1ccc(Cl)cc1)=N[C@@H](CC(=O)OC(C)(C)C)c1nnc(C)n1-2 [NCGC00250412-19]	-47.1
9	CC1=C(/C=C/C(C)=C/C=C/C(C)=C\C(=O)O)C(C)(C)CCC1 + Cc1sc2c(c1C)C(c1ccc(Cl)cc1)=N[C@@H](CC(=O)OC(C)(C)C)c1nnc(C)n1-2 [NCGC00250412-19]	-323
10	NC(N)=Nc1nc(CSCC/C(N)=N/S(N)(=O)=O)cs1 + Cc1sc2c(c1C)C(c1ccc(Cl)cc1)=N[C@@H](CC(=O)OC(C)(C)C)c1nnc(C)n1-2 [NCGC00250412-19]	-87.3
12	OC(CN1CCN(c2cccc(Cl)c2)CC1)C(c1ccccc1)c1ccccc1 (stereo unspecified) + Cc1sc2c(c1C)C(c1ccc(Cl)cc1)=N[C@@H](CC(=O)OC(C)(C)C)c1nnc(C)n1-2 [NCGC00250412-19]	-205
17	CC(C)(N)C(=O)N[C@H](COCc1ccccc1)C(=O)N1CCC2(CC1)CN(S(C)(=O)=O)c1ccccc12 + Cc1sc2c(c1C)C(c1ccc(Cl)cc1)=N[C@@H](CC(=O)OC(C)(C)C)c1nnc(C)n1-2 [NCGC00250412-19]	-36
18	Cc1ccc([N+](=O)[O-])cc1S(=O)(=O)N(C)/N=C/c1cnc2ccc(Br)cn12 + Cc1sc2c(c1C)C(c1ccc(Cl)cc1)=N[C@@H](CC(=O)OC(C)(C)C)c1nnc(C)n1-2 [NCGC00250412-19]	-135

# Next part.

row,SMILES,excess over highest single agent
1,CN1CCN(c2c(F)cc3c(=O)c(C(=O)O)cn4c3c2OCN4C)CC1 + Cc1sc2c(c1C)C(c1ccc(Cl)cc1)=N[C@@H](CC(=O)OC(C)(C)C)c1nnc(C)n1-2 [NCGC00250412-19],-15.3
2,CCCCCCCCCCCCc1ccc(S(=O)(=O)Nc2nncs2)cc1 + Cc1sc2c(c1C)C(c1ccc(Cl)cc1)=N[C@@H](CC(=O)OC(C)(C)C)c1nnc(C)n1-2 [NCGC00250412-19],63.3
3,C[C@H]1[C@H](C)CC[C@]2(C(=O)O)CC[C@]3(C)C(=CC[C@@H]4[C@@]5(C)C[C@@H](O)[C@H](O)[C@@](C)(CO)[C@@H]5CC[C@]43C)[C@H]12 + Cc1sc2c(c1C)C(c1ccc(Cl)cc1)=N[C@@H](CC(=O)OC(C)(C)C)c1nnc(C)n1-2 [NCGC00250412-19],23.2
4,CN[C@@H]1C[C@H]2O[C@@](C)([C@@H]1OC)n1c3ccccc3c3c4c(c5c6ccccc6n2c5c31)C(=O)N[C@H]4O + Cc1sc2c(c1C)C(c1ccc(Cl)cc1)=N[C@@H](CC(=O)OC(C)(C)C)c1nnc(C)n1-2 [NCGC00250412-19],-378
5,O=C(CCCCCCC(=O)Nc1ccc([C@H]2O[C@@H](CSc3nc(-c4ccccc4)c(-c4ccccc4)o3)C[C@@H](c3ccc(CO)cc3)O2)cc1)NO + Cc1sc2c(c1C)C(c1ccc(Cl)cc1)=N[C@@H](CC(=O)OC(C)(C)C)c1nnc(C)n1-2 [NCGC00250412-19],-155
6,CN(Cc1cnc2nc(N)nc(N)c2n1)c1ccc(C(=O)N[C@@H](CCC(=O)O)C(=O)O)cc1 + Cc1sc2c(c1C)C(c1ccc(Cl)cc1)=N[C@@H](CC(=O)OC(C)(C)C)c1nnc(C)n1-2 [NCGC00250412-19],-237
7,C[C@]1(CO)CN(c2cc(C(=O)Nc3ccc4c(c3)-c3c(c(C(N)=O)nn3-c3ccc(F)cc3)CC4)c(Cl)cn2)C[C@@]1(C)CO + Cc1sc2c(c1C)C(c1ccc(Cl)cc1)=N[C@@H](CC(=O)OC(C)(C)C)c1nnc(C)n1-2 [NCGC00250412-19],-78.9
8,Cc1n[nH]c(C)c1Cc1sc2c(c1C(=O)N1C[C@H](O)CO1)c(=O)n(C)c(=O)n2CC(C)C + Cc1sc2c(c1C)C(c1ccc(Cl)cc1)=N[C@@H](CC(=O)OC(C)(C)C)c1nnc(C)n1-2 [NCGC00250412-19],-210
9,CNCC(O)c1ccc(O)cc1 (stereo unspecified) + Cc1sc2c(c1C)C(c1ccc(Cl)cc1)=N[C@@H](CC(=O)OC(C)(C)C)c1nnc(C)n1-2 [NCGC00250412-19],-66.2
10,C=CCNc1c(O)cc2c(O)c1C[C@@H](C)C[C@H](OC)[C@H](O)[C@@H](C)/C=C(\C)[C@H](OC(N)=O)[C@@H](OC)/C=C\C=C(/C)C(=O)N2 + Cc1sc2c(c1C)C(c1ccc(Cl)cc1)=N[C@@H](CC(=O)OC(C)(C)C)c1nnc(C)n1-2 [NCGC00250412-19],-198
11,Cc1cc(-c2ncc(CC(=O)Nc3ccc(-c4cnccn4)cn3)cc2C)ccn1 + Cc1sc2c(c1C)C(c1ccc(Cl)cc1)=N[C@@H](CC(=O)OC(C)(C)C)c1nnc(C)n1-2 [NCGC00250412-19],192
12,Cc1cnc(C(=O)NCCc2ccc(S(=O)(=O)NC(=O)NC3CCCCC3)cc2)cn1 + Cc1sc2c(c1C)C(c1ccc(Cl)cc1)=N[C@@H](CC(=O)OC(C)(C)C)c1nnc(C)n1-2 [NCGC00250412-19],-41.1
13,CC[C@@H]1[C@@H](C)O[C@@](O)([C@@H](C)[C@H](O)[C@H](C)[C@H]2OC(=O)/C=C/C=C/[C@H](C)[C@@H]([C@@H](C)[C@@H](O)[C@H](C)[C@@]3(O)C[C@@H](O[C@H]4C[C@H](O)[C@H](O)[C@H](C)O4)[C@H](CC)[C@@H](C)O3)OC(=O)/C=C/C=C/[C@@H]2C)C[C@H]1O[C@H]1C[C@H](O)[C@H](O)[C@H](C)O1 + Cc1sc2c(c1C)C(c1ccc(Cl)cc1)=N[C@@H](CC(=O)OC(C)(C)C)c1nnc(C)n1-2 [NCGC00250412-19],-180
14,CN(C)c1nc(Cc2ccc(NC(=O)c3ccc4ccccc4c3)cc2)nc(Cl)c1CC(=O)O + Cc1sc2c(c1C)C(c1ccc(Cl)cc1)=N[C@@H](CC(=O)OC(C)(C)C)c1nnc(C)n1-2 [NCGC00250412-19],-81.3
15,O=C1[C@H](CC[C@H](O)c2ccc(F)cc2)[C@@H](c2ccc(O)cc2)N1c1ccc(F)cc1 + Cc1sc2c(c1C)C(c1ccc(Cl)cc1)=N[C@@H](CC(=O)OC(C)(C)C)c1nnc(C)n1-2 [NCGC00250412-19],-29.7
16,c1cc(-c2cnn3cc(-c4ccc(OCCN5CCCCC5)cc4)cnc23)ccn1 + Cc1sc2c(c1C)C(c1ccc(Cl)cc1)=N[C@@H](CC(=O)OC(C)(C)C)c1nnc(C)n1-2 [NCGC00250412-19],148
17,COc1ncc(-c2ccc3nccc(-c4ccnnc4)c3c2)cc1NS(=O)(=O)c1ccc(F)cc1F + Cc1sc2c(c1C)C(c1ccc(Cl)cc1)=N[C@@H](CC(=O)OC(C)(C)C)c1nnc(C)n1-2 [NCGC00250412-19],-259
18,CCc1cc(-c2n[nH]c(C)c2-c2ccc3c(c2)OCCO3)c(O)cc1O + Cc1sc2c(c1C)C(c1ccc(Cl)cc1)=N[C@@H](CC(=O)OC(C)(C)C)c1nnc(C)n1-2 [NCGC00250412-19],-215
